Assay [1] relates to A549 lung carcinoma cells. The assay is described as follows: Cell growth inhibition by cell counting (Coulter Counter), A549. Particulars: Homo sapiens; A549 and MCF-7 cells; read-out: IC50 values for growth arrest (stronger growth inhibitors). The format is cell-based.
The test system of a further assay is PKC-depleted A549 cells. The assay is described as follows: [3H]Tdr incorporation into PKC-depleted (bryostatin 1 pretreated) A549 cells. It is filed as cell-based. As to conditions: Homo sapiens, A549, read-out: IC50 for inhibition of [3H]Tdr incorporation.

Where only a bound is given, the exact number is not on record here.

`CO[C@@H]1[C@H](N(C)C(=O)c2ccccc2)C[C@H]2O[C@]1(C)n1c3ccccc3c3c4c(c5c6ccccc6n2c5c31)C(=O)NC4` [CGP 41251]: the IC50 in assay [1] was under 1000 nM. For `CN[C@@H]1C[C@H]2O[C@@](C)([C@@H]1OC)n1c3ccccc3c3c4c(c5c6ccccc6n2c5c31)C(=O)NC4` [Staurosporine, staurosporine], in the assay on PKC-depleted A549 cells, the IC50 amounted to 0.5 nM.

(Values after PMC2033742, “Comparison of ability of protein kinase C inhibitors to arrest cell growth and to alter cellular protein kinase C localisation” (British Journal of Cancer, 1995).)
